Measured values as given in patent US12139477B2, “Compounds, salts thereof and methods for treatment of diseases” (ACADIA PHARMACEUTICALS INC., priority 2017, dated 2024).
Structures were worked out from names or drawings and are uncertain. Some entries of the source have several records that differ or are many. They are shown here; other results are not. There may be further records. Values that stand side by side seem to repeat one measurement (runs, samples, wells or individuals).

By UniProt entry, the sequences of proteins in these tests, tags left out.
UniProt P28223, whole entry: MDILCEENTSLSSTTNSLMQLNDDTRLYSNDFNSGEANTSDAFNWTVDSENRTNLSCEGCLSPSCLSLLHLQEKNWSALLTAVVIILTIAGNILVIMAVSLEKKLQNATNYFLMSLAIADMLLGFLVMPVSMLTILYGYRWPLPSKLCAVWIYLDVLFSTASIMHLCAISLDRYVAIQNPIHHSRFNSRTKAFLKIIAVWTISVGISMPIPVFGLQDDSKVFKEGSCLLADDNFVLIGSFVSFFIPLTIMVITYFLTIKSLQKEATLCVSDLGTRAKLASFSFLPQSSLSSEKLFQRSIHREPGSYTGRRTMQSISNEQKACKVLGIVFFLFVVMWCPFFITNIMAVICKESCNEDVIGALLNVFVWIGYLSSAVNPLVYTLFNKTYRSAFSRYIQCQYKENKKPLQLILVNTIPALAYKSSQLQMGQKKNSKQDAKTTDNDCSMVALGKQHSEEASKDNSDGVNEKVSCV

Molecular target: 5HT2A (Homo sapiens, UniProt P28223)
Assay: Receptor Selection and Amplification (R-SAT) functional assay
Conditions: NIH3T3 cells; Ki from IC50 by Cheng and Prussoff; tested form: TFA

Compound: CC(C)Oc1ccc(CNC(=O)N(Cc2ccc(F)cc2F)[C@@H]2CCN(C)C[C@@H]2C)cc1 (relative stereo)
- 5-HT2a (pKi) (R-SAT): 8.4 and 8.8
